Experimental data reported in paper PMC9899610 (Cancer Science, 2022).

What was measured:
serum Pi = assay: Post hoc hyperphosphatemia assessment with phosphate-binding therapy; assay type: in vivo, human; settings: futibatinib QD and phosphate-binding therapy for a minimum of two cycles; 95% CI, 47.8–80.9
[1] = test system: animal models of tumors with various FGFR gene abnormalities; settings: FGFR1 or FGFR2 amplification and FGFR3 translocation; cited from earlier work
clinical = settings: human, plasma, oral, 20 mg, Week 3 (day 21), QD 20 mg, n = 2, median (minimum, maximum)

## C=CC(=O)N1CC[C@H](n2nc(C#Cc3cc(OC)cc(OC)c3)c3c(N)ncnc32)C1 [futibatinib]
Serum Pi
  Patients achieving serum Pi level <5.5 mg/dl at the last futibatinib administration: 65.7%
TIW regimen, 36–160 mg
  Accumulation following repeated administration: no obvious futibatinib accumulation
After multiple doses of 160 mg TIW, 90% CI, 0.91–2.30
  Mean accumulation ratio of AUC0–last: 1.44
[1]
  Antitumor activity in animal models: strong antitumor activity
clinical
  Tmax: 1.44 h
